{"source": "PubChem BioAssay AID248", "about": "(DTP/NCI, 2004)", "tested_on": "L1210 leukemia ip in BDF1 mice, survival T/C", "test": "NCI In Vivo Anticancer Drug Screen. Data for tumor model L1210 Leukemia (intraperitoneal) in B6D2F1 (BDF1) mice", "conditions": "T/C endpoint: mean survival time, higher T/C = longer survival", "key": {"[1]": {"conditions": "dose: 200.0 mg/kg/injection, schedule: Q04DX003 (ip), vehicle: saline"}, "[2]": {"conditions": "dose: 400.0 mg/kg/injection, schedule: Q04DX003 (ip), vehicle: saline"}, "[3]": {"conditions": "dose: 200.0 mg/kg/injection, schedule: Q01DX001 (ip), vehicle: Klucel (hydroxypropylcellulose) (HPC)"}}, "note": "The list does not hold the whole screen: it is rich in T/C values a quarter to a half above the control, in often repeated tests (any T/C) and in doses without a T/C. Other doses and runs of a compound stand elsewhere. T/C is the treated group as % of the vehicle group. Some entries give survivors of the animals treated and no T/C: the source holds a T/C of zero for them, seemingly a mark for toxic or unscored doses. Some doses without a T/C left all or most animals alive at the check, yet need not have been tolerated: the source hardly ever lists a survival T/C far under the control, and the zero likely stands for such cases as well. Counts of survivors are from the toxicity check (mostly the fifth day) where no day follows; animals may have died later. Schedule codes are those of the source, taken here to give the interval after Q, in days (D) or hours (H), and the number of doses after X. Some doses were run more than once; the values are given in rising order. For survival time, the PubChem record calls one and a half times the control and up active, and a quarter to a half above the control has no call in these data; cut-offs in other NCI protocols can differ. Some T/C values are followed by the survivors on the day toxicity was checked, most often the fifth; without a count, all were alive then.", "data": [{"smiles": "CCCCCCC1CCCCN1", "note": "(centres undefined)", "values": [{"measurement": "survivor count", "setting": "dose: 80.0 mg/kg/injection, schedule: Q01DX001 (ip), vehicle: saline", "value": "1 of 4"}]}, {"smiles": "CCN(CC)CCN(C(=O)Cc1cccc2ccccc12)c1ccccc1N", "values": [{"measurement": "survivor count", "setting": "dose: 150.0 mg/kg/injection, schedule: Q01DX001 (ip), vehicle: acid diluted with saline", "value": "3 of 6"}, {"measurement": "survivor count", "setting": "dose: 300.0 mg/kg/injection, schedule: Q01DX001 (ip), vehicle: acid diluted with saline", "value": "0 of 6"}]}, {"smiles": "CS/C(N)=N/N", "values": [{"measurement": "survivor count", "setting": "dose: 50.0 mg/kg/injection, schedule: Q04DX003 (ip), vehicle: saline", "value": "1 of 6"}, {"measurement": "survivor count", "setting": "dose: 100.0 mg/kg/injection, schedule: Q01DX001 (ip), vehicle: saline", "value": "0 of 3"}]}, {"smiles": "C#CCOC(C(=O)OC1CCN(C)CC1)(c1ccccc1)c1ccccc1", "values": [{"measurement": "survivor count", "setting": "[1]", "value": "0 of 6"}, {"measurement": "survivor count", "setting": "[2]", "value": "0 of 6"}]}, {"smiles": "COC(=O)C(NC(=O)C(NC(=O)Cc1ccccc1)SCc1ccccc1)=C(C)C", "note": "(centres undefined)", "values": [{"measurement": "survivor count", "setting": "[2]", "value": "6 of 6"}]}, {"smiles": "Nc1cc2ccc3ccccc3c2c2ccccc12", "values": [{"measurement": "T/C", "setting": "[3]", "value": "125 % of control"}, {"measurement": "survivor count", "setting": "[3]", "value": "1 of 6"}, {"measurement": "survivor count", "setting": "dose: 300.0 mg/kg/injection, schedule: Q01DX001 (ip), vehicle: Klucel (hydroxypropylcellulose) (HPC)", "value": "1 of 6"}, {"measurement": "survivor count", "setting": "dose: 400.0 mg/kg/injection, schedule: Q01DX001 (ip), vehicle: Klucel (hydroxypropylcellulose) (HPC)", "value": "2 of 6"}]}, {"smiles": "Cc1cc(C)c(S(=O)(=O)O)c(Cc2cccc3ccccc23)c1", "values": [{"measurement": "survivor count", "setting": "[1]", "value": "3 of 6"}, {"measurement": "survivor count", "setting": "dose: 400.0 mg/kg/injection, schedule: Q01DX001 (ip), vehicle: saline", "value": "0 of 6"}]}, {"smiles": "CC1(C)C(=NNc2ccccc2)C(C)(C)C1=NNc1ccccc1", "values": [{"measurement": "survivor count", "setting": "dose: 50.0 mg/kg/injection, schedule: Q01DX009 (ip), vehicle: Klucel (hydroxypropylcellulose) (HPC)", "value": "6 of 6"}, {"measurement": "survivor count", "setting": "dose: 200.0 mg/kg/injection, schedule: Q01DX009 (ip), vehicle: Klucel (hydroxypropylcellulose) (HPC)", "value": "5 of 6"}, {"measurement": "survivor count", "setting": "dose: 400.0 mg/kg/injection, schedule: Q01DX009 (ip), vehicle: Klucel (hydroxypropylcellulose) (HPC)", "value": "6 of 6"}]}, {"smiles": "O=[N+]([O-])c1ccc(/C=N/c2nccs2)o1", "values": [{"measurement": "survivor count", "setting": "dose: 12.5 mg/kg/injection, schedule: Q01DX009 (ip), vehicle: saline", "value": "5 of 6"}, {"measurement": "survivor count", "setting": "dose: 25.0 mg/kg/injection, schedule: Q01DX009 (ip), vehicle: saline", "value": "4 of 6"}, {"measurement": "survivor count", "setting": "dose: 50.0 mg/kg/injection, schedule: Q01DX009 (ip), vehicle: saline", "value": "4 of 6"}, {"measurement": "survivor count", "setting": "dose: 100.0 mg/kg/injection, schedule: Q01DX009 (ip), vehicle: saline", "value": "2 of 6"}, {"measurement": "survivor count", "setting": "[1]", "value": "2 of 6"}, {"measurement": "survivor count", "setting": "[2]", "value": "0 of 6"}]}, {"smiles": "Cc1cc(O)c(O)c(C(C)(C)C)c1", "values": [{"measurement": "survivor count", "setting": "dose: 400.0 mg/kg/injection, schedule: Q04DX002 (ip), vehicle: other", "value": "2 of 3"}]}, {"smiles": "Clc1ccccc1/C=C1\\c2ccc(Br)cc2-c2cccc[n+]21", "values": [{"measurement": "survivor count", "setting": "dose: 150.0 mg/kg/injection, schedule: Q01DX001 (ip), vehicle: other", "value": "1 of 6"}, {"measurement": "survivor count", "setting": "dose: 300.0 mg/kg/injection, schedule: Q01DX001 (ip), vehicle: other", "value": "0 of 6"}]}, {"smiles": "COC1CN(C(C)(C)C)C1", "values": [{"measurement": "survivor count", "setting": "[1]", "value": "0 of 6"}, {"measurement": "survivor count", "setting": "[2]", "value": "0 of 6"}]}, {"smiles": "O=C(O)COc1cc(F)c([N+](=O)[O-])cc1[N+](=O)[O-]", "values": [{"measurement": "survivor count", "setting": "dose: 400.0 mg/kg/injection, schedule: Q04DX002 (ip), vehicle: Klucel (hydroxypropylcellulose) (HPC)", "value": "1 of 3"}]}, {"smiles": "CCN(CC)CCNc1ccccc1[N+](=O)[O-]", "values": [{"measurement": "survivor count", "setting": "dose: 300.0 mg/kg/injection, schedule: Q04DX003 (ip), vehicle: acid diluted with saline", "value": "1 of 6"}]}, {"smiles": "CCCCCOC(=O)C#CC(=O)OCCCCC", "values": [{"measurement": "T/C", "setting": "dose: 6.25 mg/kg/injection, schedule: Q01DX009 (ip), vehicle: carboxymethylcellulose (CMC)", "value": "89, 89 [2 of 3 alive], 101, 102 % of control"}, {"measurement": "survivor count", "setting": "dose: 12.5 mg/kg/injection, schedule: Q01DX009 (ip), vehicle: carboxymethylcellulose (CMC)", "value": "6 of 6"}, {"measurement": "survivor count", "setting": "dose: 25.0 mg/kg/injection, schedule: Q01DX009 (ip), vehicle: carboxymethylcellulose (CMC)", "value": "1 of 6 and 2 of 3"}, {"measurement": "survivor count", "setting": "dose: 50.0 mg/kg/injection, schedule: Q01DX009 (ip), vehicle: carboxymethylcellulose (CMC)", "value": "6 of 6"}, {"measurement": "survivor count", "setting": "dose: 100.0 mg/kg/injection, schedule: Q01DX009 (ip), vehicle: carboxymethylcellulose (CMC)", "value": "3 of 6 and 2 of 3"}, {"measurement": "survivor count", "setting": "dose: 100.0 mg/kg/injection, schedule: Q04DX003 (ip), vehicle: carboxymethylcellulose (CMC)", "value": "5 of 6"}, {"measurement": "survivor count", "setting": "dose: 200.0 mg/kg/injection, schedule: Q01DX009 (ip), vehicle: carboxymethylcellulose (CMC)", "value": "0 of 3 and 0 of 6"}, {"measurement": "survivor count", "setting": "dose: 200.0 mg/kg/injection, schedule: Q04DX003 (ip), vehicle: carboxymethylcellulose (CMC)", "value": "0 of 6"}, {"measurement": "survivor count", "setting": "dose: 400.0 mg/kg/injection, schedule: Q04DX002 (ip), vehicle: carboxymethylcellulose (CMC)", "value": "0 of 3 and 2 of 6"}]}]}
